# Results taken from patent publication US7745657B2, “D-homoandrosta-17-yl carbamate derivatives as selective glucocorticoid receptor ligands” (Merck Sharp & Dohme Corp., priority 2005, dated 2010).
# pIC50: −log10 of the molar value. Some entries share one result that the patent states for a list of compounds.
# How the values were obtained:
# [1] = target: T1, glucocorticoid receptor (Homo sapiens, UniProt P04150); assay: Ligand binding assay (3H-dexamethasone displacement, MDA-MB-453 cell lysate); details: 3H-DEX trace, 4° C. overnight, IC50s calculated using DEX as a reference
# T1 construct: The supernatant is used to set-up assay right away; host or cells: MDA-MB-453 cell lysate supernatant
# T1 sequence (P04150 1-777): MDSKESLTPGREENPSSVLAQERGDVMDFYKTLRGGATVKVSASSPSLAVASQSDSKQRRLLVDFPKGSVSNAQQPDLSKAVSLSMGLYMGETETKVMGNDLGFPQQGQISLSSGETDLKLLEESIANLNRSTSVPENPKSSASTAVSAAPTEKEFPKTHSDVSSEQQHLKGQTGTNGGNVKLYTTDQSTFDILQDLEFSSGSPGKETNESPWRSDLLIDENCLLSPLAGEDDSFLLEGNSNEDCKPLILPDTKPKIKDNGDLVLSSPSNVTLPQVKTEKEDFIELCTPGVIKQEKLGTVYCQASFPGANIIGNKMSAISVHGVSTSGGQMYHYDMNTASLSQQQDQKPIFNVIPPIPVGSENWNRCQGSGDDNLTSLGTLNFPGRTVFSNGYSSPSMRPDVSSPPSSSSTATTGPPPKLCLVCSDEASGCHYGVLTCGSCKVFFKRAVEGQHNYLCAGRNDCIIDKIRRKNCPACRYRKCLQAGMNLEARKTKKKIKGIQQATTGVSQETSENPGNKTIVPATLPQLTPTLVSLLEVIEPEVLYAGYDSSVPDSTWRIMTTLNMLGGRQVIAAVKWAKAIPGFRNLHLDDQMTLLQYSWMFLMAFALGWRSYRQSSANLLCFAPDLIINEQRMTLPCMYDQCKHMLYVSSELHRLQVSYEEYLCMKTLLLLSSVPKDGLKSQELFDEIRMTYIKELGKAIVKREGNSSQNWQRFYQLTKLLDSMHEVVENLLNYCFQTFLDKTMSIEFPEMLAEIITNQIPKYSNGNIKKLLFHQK
# [2] = target: T2, human GR (Homo sapiens, UniProt P04150); assay: Transrepression assay, TNFα-β-lactamase reporter gene in U937 cells; format: cell-based; details: PMA/LPS stimulated, activity repressed by 100 nM dexamethasone alone set as 100%
# T2 construct: U937 cells contain an endogenous glucocorticoid receptor (GR); endogenous in cells; host or cells: U937 cells stably transfected with the TNF-alpha promoter / beta-lactamase reporter
# T2 sequence (P04150 1-777): T1 sequence (P04150 1-777)
# Description: This assay assesses the ability of test compounds to control transcription from the TNFα-β-lactamase reporter gene in U937 cells, a human myelomonocytic leukemia cell line that naturally expresses the human GR. The assay measures compound dependent-repression of the TNFα promoter linked to a reporter gene.
# The human U937 cells that had been stablely transfected with the TNF-αpromoter driving β-lactamase are used for this assay. U937 cells contain an endogenous glucocorticoid receptor (GR). Cells are maintained in RPMI 1640 Growth medium (Gibco Cat#11875-093) containing 25 mM HEPES, 10% FBS, 2 mM L-Glutamine, 1 mM Sodium pyruvate, 25 μg/ml Gentamicin (Gibco Cat#15710-064), 1:1000 2-Mercaptoethanol (Gibco Cat#21985-023) and 0.8 mg/ml G418 (Gibco Cat#10131-027). The density of the cells in the flask needs to be about 1×10^6−3×10^6/ml at the time of harvest. Usually, the cells are split to 1.2˜1.4×10^5/ml (1:10) 3 days prior to the assay. 50,000 cells/well are plated in 96 well black-walled plates the day of assay. Test compounds are added 10 μL/well, and cells are incubated at 37° C. for 30˜45 min. For assaying compounds, first dilute 1:10 in DMSO to make 1 mM, then further dilute 1:100 in medium to make 10× stock prior to adding to the cells. […]
substance,measurement,setting,value
"(11β,16β,17α)-9-fluoro-11-hydroxy-16-methyl-3,17a-dioxo-17-(hydroxymethyl)-D-homoandrosta-1,4-dien-17-yl-(3-methyl-2-propyl)carbamate [Example 4]",pIC50,[1],> 6.00
same,maximal activity,[2],greater than 5%
